# Reference: paper PMC12040169 (PLOS Biology, 2025)
# Some of the results follow.
# Test system: T1, CTL2-GFP (C. trachomatis L2/434/Bu, GFP-expressing)
# T1 construct: L2/434/Bu, GFP-expressing
# Set-up: species or system HeLa; Intracellular C. trachomatis growth in HeLa cells, bulk GFP fluorescence relative to DMSO
# Settings: bulk GFP, single well; 28.5 h, 10 µM; inhibitor
row,Structure (SMILES),% of control remaining
1,Cc1ccc(NC(=O)c2cnc3scc(C)n3c2=O)cc1 [CBK287454],110.942%
2,CC(C)c1cc(C(=O)NCCN2CCc3ccccc32)n(C)n1 [CBK282685],104.865%
3,CC(=O)Nc1ccc(/C=N/NC(=O)c2nnn(-c3nonc3N)c2-c2ccccc2)cc1 [CBK262790],115.939%
4,CC(Oc1ccccc1)C(=O)N1CCN(CCO)CC1 (stereo not shown) [CBK267428],130.519%
5,COc1ccc(N2CCN(/C(=N/S(=O)(=O)c3ccccc3)Nc3nc(C)cc(C)n3)CC2)cc1 [CBK266750],128.04%
6,O=C(O)CCCn1cc(NC(=O)CCc2ccccc2)cn1 [CBK287055],146.666%
7,CC(C)N1C(=O)C2(CC(=O)N(CCCN3C(=O)c4ccccc4C3=O)C2=O)c2cc(F)ccc21 (stereo not shown) [CBK075969],110.255%
8,COc1ccccc1-c1nccnc1OCCc1ccc(NC(C)=O)cc1 [CBK106815],99.2891%
9,O=C(O)C1CCCCC1C(=O)Nc1ccc(S(=O)(=O)N2CCCCC2)cc1 (stereo not shown) [CBK267950],103.985%
10,COc1ccc(CCN(Cc2ccc(Cl)c(Cl)c2)C(=O)Nc2cccnc2)cc1OC [CBK158797],110.631%
11,Cc1c(C(=O)N2CCCCC2C(N)=O)nnn1-c1cccc(Cl)c1 (stereo not shown) [CBK305490],117.23%
12,O=C(c1ccco1)N1CCC(n2nc(C3CC3)ccc2=O)CC1 [CBK282350],112.606%
13,COc1ccccc1NC(=O)NC(=O)C1CCN(C(C)=O)CC1 [CBK034853],98.3456%
14,COc1ccc(Nc2cc(-n3nc(C)cc3-c3ccccc3)ncn2)cc1 [CBK293925],100.374%
15,Cc1ccc(Cn2ccsc2=NC(=O)c2cc(S(=O)(=O)N3CCOCC3)ccc2C)cc1 [CBK296935],82.3303%
16,Cc1cc(CN2CCN(C(=O)NCc3cccnc3)CC2)on1 [CBK305627],145.919%
17,COc1cc2c(c(OC)c1OC)CC(=O)NC21CCN(C(=O)NC(C)(C)C)CC1 [CBK047301],100%
18,CC(c1ccccc1)C(CC(=O)O)C(=O)NCc1ccccc1 (stereo not shown) [CBK286830],107.398%
19,COc1cccc(OC)c1-c1cn2ccnc2c(NCc2ccccn2)n1 [CBK037439],164.904%
20,O=C(O)CCCn1cc(NC(=O)c2cccc(F)c2)cn1 [CBK270051],128.628%
21,O=C(O)C1CCC(CNc2ccc([N+](=O)[O-])cn2)CC1 (stereo not shown) [CBK286626],125.166%
22,Cc1nc2c(C)cccc2c(O)c1CN1CCCCCC1 [CBK264512],135.299%
23,CCN(CC)c1nc(Cl)c(C#N)c2c1CN(C)CC2 [CBK009140],125.211%
24,O=C1COc2ccccc2C/C=C/C[C@H]2CN(C(=O)Cn3ncc4ccccc4c3=O)CC[C@H]2N1 [CBK292084],107.476%
25,Cc1cccc(C)c1NC(=O)CC1Sc2ccccc2NC1=O (stereo not shown) [CBK267160],167.98%

row,Structure (SMILES),% of control remaining
1,Cc1oc(NC(=O)CN2CCN(c3ncccn3)CC2)c(C#N)c1C [CBK305569],114.069%
2,O=C(CN1CCCCC1)Nc1c(-c2ccccc2)c2cc(Br)ccc2[nH]c1=O [CBK263351],116.702%
3,CC(=O)C(Sc1nc(NC(C)C)nc(N(C)C)n1)C(C)=O [CBK269811],117.307%
4,O=C(O)c1ccc(-n2nnnc2SCc2ccccc2)cc1 [CBK287161],108.969%
5,COc1ccc(CN2CCN(Cc3ccc4c(c3)OCO4)CC2)c(OC)c1OC [CBK033874],109.212%
6,CCCN1CCC(NC(=O)c2cccc(S(N)(=O)=O)c2)CC1 [CBK305956],134.812%
7,CN(C(=O)Cc1ccsc1)c1nc2c(s1)CCc1c-2cnn1C [CBK281929],47.0702%
8,O=C1c2ccc(Oc3ccc4c(c3)C(=O)N(c3ccccn3)C4=O)cc2C(=O)N1c1ccccn1 [CBK261202],100%
9,Cc1ncsc1C(=O)NCc1ccc(S(=O)(=O)N2CCCCC2)cc1 [CBK305556],137.278%
10,COc1cccc(C(=O)N2CCCC(c3cc4ncccc4[nH]3)C2)c1 (stereo not shown) [CBK283416],92.3473%
11,CN(c1cc(F)ccc1[N+](=O)[O-])S(=O)(=O)c1ccccc1 [CBK001369],103.054%
12,O=S(=O)(Oc1ccc2ccccc2c1)c1ccc2c(c1)Cc1cc(S(=O)(=O)Oc3ccc4ccccc4c3)ccc1-2 [CBK262385],95.0267%
13,Cc1ccc(C(C)C)c(OCC(=O)NS(=O)(=O)c2ccc(Br)cc2)c1 [CBK268719],153.943%
14,Cc1nnnn1CC(=O)Nc1nn(C)c2cccc(N3CCOCC3)c12 [CBK307335],122.776%
15,Cn1ccnc1CNC(=O)c1cccc(OCC(=O)N2CCCCC2)c1 [CBK306635],123.198%
16,Oc1ccc2ccccc2c1/C=N/Nc1nnc(-c2ccccc2)c(-c2ccccc2)n1 [CBK262005],115.633%
17,O=C(N[C@@H](Cc1ccc(OCc2ccc(Cl)cc2Cl)cc1)C(=O)O)C1CCCC1 [CBK017610],137.485%
18,Cc1ccc(S(=O)(=O)c2ccc(C)c(S(=O)(=O)N3CCCC3)c2)cc1S(=O)(=O)N1CCCC1 [CBK261772],100%
19,O=S(=O)(Nc1cccc(C(F)(F)F)c1)c1cc2c(N3CCNCC3)nccc2s1 [CBK039085C],86.7988%
20,COc1cccc(CN2CCC3(CCCNC3=O)CC2)c1 [CBK284824],112.461%
21,CC(C)C(=O)Nc1cc2cccnc2c(-c2ccc3c(c2)CCO3)n1 [CBK081260],116.471%
22,O=C(CC(C(=O)O)N1CCOCC1)Nc1ccccc1 (stereo not shown) [CBK267008],119.231%
23,O=C(Nc1ccc(N2CCNCC2)nc1)c1cccs1 [CBK029430T],144.521%
24,O=C(Cc1c[nH]c2ccccc12)Nc1cncc(OC2CCNCC2)n1 [CBK028441T],100%

# Structural class, the compounds so far containing an aryl methoxy group.
row,Structure (SMILES),% of control remaining
5,COc1ccc(N2CCN(/C(=N/S(=O)(=O)c3ccccc3)Nc3nc(C)cc(C)n3)CC2)cc1 [CBK266750],128.04%
8,COc1ccccc1-c1nccnc1OCCc1ccc(NC(C)=O)cc1 [CBK106815],99.2891%
10,COc1ccc(CCN(Cc2ccc(Cl)c(Cl)c2)C(=O)Nc2cccnc2)cc1OC [CBK158797],110.631%
13,COc1ccccc1NC(=O)NC(=O)C1CCN(C(C)=O)CC1 [CBK034853],98.3456%
14,COc1ccc(Nc2cc(-n3nc(C)cc3-c3ccccc3)ncn2)cc1 [CBK293925],100.374%
17,COc1cc2c(c(OC)c1OC)CC(=O)NC21CCN(C(=O)NC(C)(C)C)CC1 [CBK047301],100%
19,COc1cccc(OC)c1-c1cn2ccnc2c(NCc2ccccn2)n1 [CBK037439],164.904%
5,COc1ccc(CN2CCN(Cc3ccc4c(c3)OCO4)CC2)c(OC)c1OC [CBK033874],109.212%
10,COc1cccc(C(=O)N2CCCC(c3cc4ncccc4[nH]3)C2)c1 (stereo not shown) [CBK283416],92.3473%
20,COc1cccc(CN2CCC3(CCCNC3=O)CC2)c1 [CBK284824],112.461%
